From PMC9262955 come the findings set out here.

Chains of the proteins cited; added tags and fusions are not shown.
UniProt Q9I1W9: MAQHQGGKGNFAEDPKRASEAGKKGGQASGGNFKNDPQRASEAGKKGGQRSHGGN
UniProt Q9I1T1: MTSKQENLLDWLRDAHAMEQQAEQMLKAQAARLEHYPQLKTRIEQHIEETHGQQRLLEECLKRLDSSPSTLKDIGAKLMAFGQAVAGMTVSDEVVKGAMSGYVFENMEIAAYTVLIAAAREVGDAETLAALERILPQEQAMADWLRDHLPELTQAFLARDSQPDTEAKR

Test [1] deals with V5-tagged PA2146 (P. aeruginosa PAO1) (UniProt Q9I1W9). The experiment in a line: co-IP; total protein cell extracts (200 µg) of cells co-producing V5-tagged PA2146 and HA-tagged PA2184; immunoprecipitation with immobilized anti-V5 antibodies (2 µg/mL), immunoblot with anti-HA.
In test [2] the target is PA2146 fused to the T25 fragment of adenylate cyclase (pKT25) (P. aeruginosa PAO1) (UniProt Q9I1W9). The experiment in a line: two-hybrid; bacterial adenylate cyclase two-hybrid (BACTH) in E. coli DHM1; T18 and T25 fusions co-expressed; spotted on LB agar with ampicillin, kanamycin, IPTG and X-Gal, 30 °C; blue colonies.
The target is the same in test [3]. The experiment in a line: two-hybrid; BACTH in E. coli DHM1, quantified by β-galactosidase activity (Miller assay).

Results are given in words; binding and its absence hold for the method and conditions named. For part of these data: In cells and extracts the contact can be indirect. Some results given as binding are weak or reduced against the parent protein; the word gives no strength.

Take “HA-tagged PA2184 (from UniProt Q9I1T1 1-169)”: in test [1], the binding entry is given as “binds”.
For “PA2184 fused to the T18 fragment of adenylate cyclase (pUT18C) (from UniProt Q9I1T1 1-169)”, the binding entry in test [2] and in test [3] was “binds” each time.
